The supplement of paper PMC10849652
The list shows a part of the results.

The chains behind the UniProt entries cited, without tags or fusion partners. Where a name states a change or a piece, a line headed by the entry shows the natural chain unless it says otherwise.
UniProt Q15654: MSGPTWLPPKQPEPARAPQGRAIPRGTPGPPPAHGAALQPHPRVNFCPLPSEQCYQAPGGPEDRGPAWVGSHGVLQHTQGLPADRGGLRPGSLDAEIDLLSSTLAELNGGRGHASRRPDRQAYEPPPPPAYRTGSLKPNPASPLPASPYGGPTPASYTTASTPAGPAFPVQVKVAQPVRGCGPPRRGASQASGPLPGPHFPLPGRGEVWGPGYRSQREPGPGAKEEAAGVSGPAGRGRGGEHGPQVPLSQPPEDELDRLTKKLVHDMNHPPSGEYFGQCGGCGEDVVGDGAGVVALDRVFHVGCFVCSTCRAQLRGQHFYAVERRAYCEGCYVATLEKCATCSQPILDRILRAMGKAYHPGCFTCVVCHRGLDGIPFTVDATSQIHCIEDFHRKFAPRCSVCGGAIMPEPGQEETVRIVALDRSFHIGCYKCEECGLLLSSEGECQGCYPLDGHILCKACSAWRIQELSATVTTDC
UniProt Q2NL82: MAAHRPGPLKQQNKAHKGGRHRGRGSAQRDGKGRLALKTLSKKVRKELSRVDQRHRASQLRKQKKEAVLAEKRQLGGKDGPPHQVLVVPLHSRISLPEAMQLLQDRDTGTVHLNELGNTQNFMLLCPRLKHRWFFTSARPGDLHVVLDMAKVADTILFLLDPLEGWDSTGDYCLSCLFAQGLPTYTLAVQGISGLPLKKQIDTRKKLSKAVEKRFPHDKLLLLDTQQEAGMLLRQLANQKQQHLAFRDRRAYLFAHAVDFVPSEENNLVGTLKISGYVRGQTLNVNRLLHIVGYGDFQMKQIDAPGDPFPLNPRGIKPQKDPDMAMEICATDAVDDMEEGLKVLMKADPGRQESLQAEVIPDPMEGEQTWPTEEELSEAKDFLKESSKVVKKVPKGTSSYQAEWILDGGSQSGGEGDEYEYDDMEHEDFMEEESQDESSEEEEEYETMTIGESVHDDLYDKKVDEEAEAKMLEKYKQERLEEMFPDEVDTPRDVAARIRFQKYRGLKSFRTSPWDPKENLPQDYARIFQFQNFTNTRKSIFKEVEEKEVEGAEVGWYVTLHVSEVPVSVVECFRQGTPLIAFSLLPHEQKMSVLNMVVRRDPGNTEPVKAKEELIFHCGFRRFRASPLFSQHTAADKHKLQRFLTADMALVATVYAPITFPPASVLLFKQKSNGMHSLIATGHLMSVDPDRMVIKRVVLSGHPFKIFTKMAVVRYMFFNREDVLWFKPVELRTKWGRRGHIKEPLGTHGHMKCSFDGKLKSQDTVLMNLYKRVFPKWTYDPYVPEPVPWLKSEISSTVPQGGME
UniProt Q8WVT3: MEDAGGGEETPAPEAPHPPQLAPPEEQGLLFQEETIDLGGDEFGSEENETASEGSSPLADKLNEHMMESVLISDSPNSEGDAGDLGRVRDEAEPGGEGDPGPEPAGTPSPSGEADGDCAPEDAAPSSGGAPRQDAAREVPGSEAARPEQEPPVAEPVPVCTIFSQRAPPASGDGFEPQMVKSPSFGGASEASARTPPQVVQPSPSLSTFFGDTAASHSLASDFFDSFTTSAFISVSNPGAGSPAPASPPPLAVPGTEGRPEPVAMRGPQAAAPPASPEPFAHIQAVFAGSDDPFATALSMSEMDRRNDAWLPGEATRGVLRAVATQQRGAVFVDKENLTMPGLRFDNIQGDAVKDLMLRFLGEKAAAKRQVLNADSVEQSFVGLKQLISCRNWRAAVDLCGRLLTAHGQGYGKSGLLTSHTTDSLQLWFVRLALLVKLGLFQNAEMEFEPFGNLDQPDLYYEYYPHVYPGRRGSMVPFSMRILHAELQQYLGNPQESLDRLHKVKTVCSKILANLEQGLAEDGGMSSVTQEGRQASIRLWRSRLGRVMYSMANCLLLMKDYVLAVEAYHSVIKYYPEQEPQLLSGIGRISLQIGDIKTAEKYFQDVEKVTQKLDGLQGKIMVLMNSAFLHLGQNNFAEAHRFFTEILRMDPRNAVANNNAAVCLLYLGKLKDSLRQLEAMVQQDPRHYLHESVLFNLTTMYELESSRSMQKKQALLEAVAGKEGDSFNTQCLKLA
UniProt Q12933: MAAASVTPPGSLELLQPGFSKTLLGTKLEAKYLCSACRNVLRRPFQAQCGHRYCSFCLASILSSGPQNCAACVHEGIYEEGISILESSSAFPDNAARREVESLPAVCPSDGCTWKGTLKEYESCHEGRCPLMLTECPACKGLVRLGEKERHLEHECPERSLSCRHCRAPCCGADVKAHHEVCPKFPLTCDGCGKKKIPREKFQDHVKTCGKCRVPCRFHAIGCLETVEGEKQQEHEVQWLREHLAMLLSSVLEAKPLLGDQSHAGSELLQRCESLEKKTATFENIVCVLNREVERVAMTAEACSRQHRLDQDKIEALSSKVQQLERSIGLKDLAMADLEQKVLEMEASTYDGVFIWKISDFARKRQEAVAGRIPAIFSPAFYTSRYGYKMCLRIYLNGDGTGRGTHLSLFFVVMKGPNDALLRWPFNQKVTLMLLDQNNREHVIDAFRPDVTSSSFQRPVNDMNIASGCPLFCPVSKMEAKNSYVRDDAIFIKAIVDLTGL
UniProt Q9BSV6: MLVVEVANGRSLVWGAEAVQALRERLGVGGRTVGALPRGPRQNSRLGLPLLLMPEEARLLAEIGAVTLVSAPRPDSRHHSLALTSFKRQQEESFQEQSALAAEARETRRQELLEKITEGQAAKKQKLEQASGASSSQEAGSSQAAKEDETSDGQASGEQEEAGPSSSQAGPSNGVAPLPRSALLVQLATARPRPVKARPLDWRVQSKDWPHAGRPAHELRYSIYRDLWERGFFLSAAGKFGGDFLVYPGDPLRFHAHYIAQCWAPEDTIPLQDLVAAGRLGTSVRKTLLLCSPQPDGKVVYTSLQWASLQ
UniProt Q15645: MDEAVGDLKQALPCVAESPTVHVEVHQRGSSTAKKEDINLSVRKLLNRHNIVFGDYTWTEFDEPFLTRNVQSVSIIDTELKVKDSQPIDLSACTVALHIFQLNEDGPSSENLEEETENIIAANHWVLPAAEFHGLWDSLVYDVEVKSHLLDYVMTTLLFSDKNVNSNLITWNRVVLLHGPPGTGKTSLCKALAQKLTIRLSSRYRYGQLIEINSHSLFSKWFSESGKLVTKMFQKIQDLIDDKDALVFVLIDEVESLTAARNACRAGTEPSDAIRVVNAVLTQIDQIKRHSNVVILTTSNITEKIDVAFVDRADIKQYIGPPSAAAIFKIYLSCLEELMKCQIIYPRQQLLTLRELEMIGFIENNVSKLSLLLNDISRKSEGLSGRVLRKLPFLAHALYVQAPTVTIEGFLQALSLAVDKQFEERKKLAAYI
UniProt Q86TN4: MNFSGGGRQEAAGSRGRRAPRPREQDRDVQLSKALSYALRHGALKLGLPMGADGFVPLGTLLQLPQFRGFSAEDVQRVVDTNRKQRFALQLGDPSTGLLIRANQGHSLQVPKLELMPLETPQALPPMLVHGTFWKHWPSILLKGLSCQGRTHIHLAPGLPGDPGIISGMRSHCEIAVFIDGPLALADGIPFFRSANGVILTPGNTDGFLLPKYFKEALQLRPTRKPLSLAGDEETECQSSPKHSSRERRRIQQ
UniProt P30536, whole entry, looked up: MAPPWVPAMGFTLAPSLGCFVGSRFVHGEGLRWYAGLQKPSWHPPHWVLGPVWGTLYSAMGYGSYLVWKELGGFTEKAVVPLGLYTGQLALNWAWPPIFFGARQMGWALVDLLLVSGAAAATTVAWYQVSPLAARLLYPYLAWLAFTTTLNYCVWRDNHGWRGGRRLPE
UniProt Q9Y2L5: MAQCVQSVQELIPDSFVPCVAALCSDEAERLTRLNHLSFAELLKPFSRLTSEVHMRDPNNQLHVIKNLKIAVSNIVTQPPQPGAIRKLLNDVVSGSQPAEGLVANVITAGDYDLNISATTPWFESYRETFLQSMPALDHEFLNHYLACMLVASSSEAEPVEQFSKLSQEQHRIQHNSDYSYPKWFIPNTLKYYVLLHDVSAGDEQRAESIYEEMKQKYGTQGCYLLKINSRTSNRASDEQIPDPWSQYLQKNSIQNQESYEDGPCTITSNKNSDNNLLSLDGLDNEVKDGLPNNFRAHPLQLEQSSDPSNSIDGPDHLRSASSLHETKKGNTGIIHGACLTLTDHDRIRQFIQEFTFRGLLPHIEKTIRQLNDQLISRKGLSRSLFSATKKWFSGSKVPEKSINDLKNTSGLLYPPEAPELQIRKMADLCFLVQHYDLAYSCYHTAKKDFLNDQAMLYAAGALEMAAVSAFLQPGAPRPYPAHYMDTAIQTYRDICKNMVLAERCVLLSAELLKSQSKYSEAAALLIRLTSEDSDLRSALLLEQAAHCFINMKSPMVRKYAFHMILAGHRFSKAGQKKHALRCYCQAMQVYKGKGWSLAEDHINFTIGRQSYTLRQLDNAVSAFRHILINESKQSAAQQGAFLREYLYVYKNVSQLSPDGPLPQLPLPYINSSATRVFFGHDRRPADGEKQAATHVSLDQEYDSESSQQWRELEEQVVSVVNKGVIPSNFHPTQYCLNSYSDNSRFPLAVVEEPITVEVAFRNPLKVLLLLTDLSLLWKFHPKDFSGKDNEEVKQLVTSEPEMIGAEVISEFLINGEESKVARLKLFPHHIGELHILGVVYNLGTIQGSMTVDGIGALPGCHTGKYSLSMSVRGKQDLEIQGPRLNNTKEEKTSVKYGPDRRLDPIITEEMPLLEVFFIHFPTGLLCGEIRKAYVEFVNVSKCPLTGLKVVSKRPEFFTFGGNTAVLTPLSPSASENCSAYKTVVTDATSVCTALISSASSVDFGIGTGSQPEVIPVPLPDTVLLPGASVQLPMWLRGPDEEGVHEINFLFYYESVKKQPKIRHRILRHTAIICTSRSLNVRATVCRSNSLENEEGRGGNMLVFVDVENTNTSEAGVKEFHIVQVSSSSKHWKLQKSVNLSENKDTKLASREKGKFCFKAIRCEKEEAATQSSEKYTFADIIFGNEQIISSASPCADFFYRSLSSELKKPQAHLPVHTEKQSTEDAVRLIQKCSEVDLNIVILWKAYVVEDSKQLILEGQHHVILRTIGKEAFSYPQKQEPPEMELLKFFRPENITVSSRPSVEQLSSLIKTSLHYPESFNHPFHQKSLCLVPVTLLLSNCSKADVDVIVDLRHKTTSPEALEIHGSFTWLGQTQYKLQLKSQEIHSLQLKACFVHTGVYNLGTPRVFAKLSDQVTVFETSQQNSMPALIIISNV
UniProt Q13114: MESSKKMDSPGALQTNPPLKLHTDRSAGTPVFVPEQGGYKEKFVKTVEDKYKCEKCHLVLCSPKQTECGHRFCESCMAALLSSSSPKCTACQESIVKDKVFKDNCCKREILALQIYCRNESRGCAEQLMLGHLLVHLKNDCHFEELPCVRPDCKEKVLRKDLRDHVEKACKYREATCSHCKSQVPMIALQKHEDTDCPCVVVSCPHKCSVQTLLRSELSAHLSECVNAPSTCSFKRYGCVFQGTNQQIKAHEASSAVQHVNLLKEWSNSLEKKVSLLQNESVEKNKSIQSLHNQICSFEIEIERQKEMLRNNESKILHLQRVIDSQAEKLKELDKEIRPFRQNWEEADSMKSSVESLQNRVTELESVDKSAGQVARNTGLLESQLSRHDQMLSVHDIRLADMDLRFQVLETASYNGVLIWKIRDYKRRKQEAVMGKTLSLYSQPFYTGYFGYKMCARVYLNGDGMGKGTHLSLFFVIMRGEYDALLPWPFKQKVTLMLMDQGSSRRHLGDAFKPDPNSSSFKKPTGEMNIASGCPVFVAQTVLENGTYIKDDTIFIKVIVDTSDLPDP

Tests used:
Assay in all cases: log2 fold change, soluble protein after heating vs DMSO (PISA); higher = thermal stabilisation; K562 lysate, 10 uM; active = over 0.2 and 3.5 SD of the protein, either way, in both replicates (recomputed)
nilotinib = compound: Cc1cn(-c2cc(NC(=O)c3ccc(C)c(Nc4nccc(-c5cccnc5)n4)c3)cc(C(F)(F)F)c2)cn1 [nilotinib]
Summary of the method: (§1)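 Soluble protein was defined as the supernatant remaining after 21,000xg for 90 min, following pooling of heated aliquots and adjustment to 0.5% NP-40 at 4°C. Before that, crude K562 extract at 1 mg/mL protein in PBS pH 7.4 with 1 mM MgCl2 was treated with 10 μM compound for 30 min and heated for 3 min across 48°C-58°C. Quantification used TMTpro 16plex LC-MS/MS with channel sums equalised, and values are log-two fold changes in thermal stability relative to solvent controls from duplicates.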

[1] = compound: Cc1nc(Nc2n[nH]c3c2CN(C(=O)N[C@H](CN(C)C)c2ccccc2)C3(C)C)c2sccc2n1
Summary of the method: as §1

dasatinib = compound: Cc1nc(Nc2ncc(C(=O)Nc3c(C)cccc3Cl)s2)cc(N2CCN(CCO)CC2)n1 [dasatinib]
Summary of the method: as §1

[2] = compound: Cc1ncc(-c2ccnc(Nc3ccc(S(C)(=O)=O)cc3)n2)n1C(C)C
Summary of the method: as §1

[3] = compound: Cn1cc(-c2ccc3c(c2)CCN3C(=O)Cc2cccc(C(F)(F)F)c2)c2c(N)ncnc21
Summary of the method: as §1

quisinostat = compound: Cn1cc(CNCC2CCN(c3ncc(C(=O)NO)cn3)CC2)c2ccccc21 [quisinostat]
Summary of the method: as §1

tipifarnib = compound: Cn1cncc1[C@@](N)(c1ccc(Cl)cc1)c1ccc2c(c1)c(-c1cccc(Cl)c1)cc(=O)n2C [tipifarnib]
Summary of the method: as §1

[4] = compound: NC(=O)Nc1cc(-c2cccc(F)c2)sc1C(=O)N[C@H]1CCCNC1
Summary of the method: as §1

[5] = compound: NC(=O)c1cnc(N[C@@H]2CCCC[C@@H]2N)nc1Nc1cccc(-n2nccn2)c1
Summary of the method: as §1

[6] = compound: NC1(c2ccc(-c3nc4ccn5c(=O)[nH]nc5c4cc3-c3ccccc3)cc2)CCC1
Summary of the method: as §1

[7] = compound: NCC(=O)Nc1ccc(-n2nc(C(F)(F)F)cc2-c2ccc3c(ccc4ccccc43)c2)cc1
Summary of the method: as §1

vorinostat = compound: O=C(CCCCCCC(=O)Nc1ccccc1)NO [vorinostat]
Summary of the method: as §1

silmitasertib = compound: O=C(O)c1ccc2c(c1)nc(Nc1cccc(Cl)c1)c1ccncc12 [silmitasertib]
Summary of the method: as §1

[8] = compound: O=C1NC(=O)C(c2cnc3ccccn23)=C1c1cn2c3c(cc(F)cc13)CN(C(=O)N1CCCCC1)CC2
Summary of the method: as §1

entospletinib = compound: c1cn2cc(-c3ccc4cn[nH]c4c3)nc(Nc3ccc(N4CCOCC4)cc3)c2n1 [entospletinib]
Summary of the method: as §1

Target	log2 fold change (nilotinib)	log2 fold change [1]	log2 fold change (dasatinib)	log2 fold change [2]	log2 fold change [3]	log2 fold change (quisinostat)	log2 fold change (tipifarnib)	log2 fold change [4]	log2 fold change [5]	log2 fold change [6]	log2 fold change [7]	log2 fold change (vorinostat)	log2 fold change (silmitasertib)	log2 fold change [8]	log2 fold change (entospletinib)
TRIP6 (UniProt Q15654)	inactive: 0.023	inactive: 0.001	inactive: 0	inactive: 0.032	inactive: -0.012	inactive: -0.003	inactive: -0.007	inactive: -0.01	inactive: 0.015	inactive: -0.002	inactive: 0.021	inactive: -0.037	inactive: 0	inactive: 0.024	inactive: -0.024
TSR1 (UniProt Q2NL82)	inactive: 0.077	inactive: 0.001	inactive: -0.015	inactive: 0.026	inactive: 0.045	inactive: -0.025	inactive: -0.003	inactive: 0.052	inactive: -0.001	inactive: -0.019	inactive: 0.012	inactive: -0.089	inactive: 0.043	inactive: 0.043	inactive: 0.012
TRAPPC12 (UniProt Q8WVT3)	inactive: -0.007	inactive: 0.025	inactive: 0.024	inactive: -0.05	inactive: 0.038	inactive: 0.003	inactive: 0.039	inactive: -0.018	inactive: -0.007	inactive: 0.013	inactive: 0.032	active: -0.258	inactive: 0.005	inactive: 0.043	inactive: -0.001
TRAF2 isoform 2 (UniProt Q12933)	inactive: -0.02	inactive: 0.008	inactive: -0.024	inactive: 0.042	inactive: 0.01	inactive: -0.024	inactive: 0.005	inactive: -0.016	inactive: 0.001	inactive: -0.016	inactive: 0.014	active: -0.269	inactive: 0.024	inactive: 0.031	inactive: 0.005
TSEN34 (UniProt Q9BSV6)	inactive: 0.02	inactive: 0.05	inactive: -0.085	inactive: -0.032	inactive: -0.011	inactive: 0.012	inactive: 0.037	inactive: 0.013	inactive: -0.006	inactive: -0.065	inactive: 0.072	inactive: -0.083	inactive: -0.047	inactive: 0.027	inactive: -0.008
TRIP13 (UniProt Q15645)	inactive: -0.002	inactive: -0.031	inactive: 0.003	inactive: 0.049	inactive: 0.046	inactive: -0.065	inactive: 0.007	inactive: 0.026	inactive: 0.002	inactive: -0.031	inactive: 0.002	active: -0.472	inactive: 0.061	inactive: -0.002	inactive: 0.022
TRPT1 isoform 4 (UniProt Q86TN4)	inactive: 0.025	inactive: 0.24	inactive: 0.021	inactive: 0.151	inactive: -0.057	inactive: -0.037	inactive: 0.042	inactive: 0.03	inactive: 0.13	inactive: -0.239	inactive: 0.016	inactive: 0.055	inactive: -0.037	inactive: 0.051	–
TTC27 (UniProt Q6P3X3)	inactive: -0.018	inactive: 0.027	inactive: -0.009	inactive: -0.031	inactive: 0.01	inactive: -0.047	inactive: -0.03	inactive: 0.057	inactive: -0.028	inactive: -0.023	inactive: -0.027	active: -0.403	inactive: 0.053	inactive: -0.06	inactive: -0.002
TSPO (UniProt P30536)	inactive: 0.002	inactive: -0.038	inactive: 0.018	inactive: 0.058	inactive: -0.001	inactive: -0.087	inactive: 0.008	inactive: 0.018	inactive: -0.078	inactive: 0.051	inactive: -0.087	inactive: -0.078	inactive: 0.117	inactive: -0.017	inactive: 0.052
TRAPPC8 (UniProt Q9Y2L5)	inactive: 0.008	inactive: -0.001	inactive: -0.071	inactive: -0.002	inactive: 0.059	inactive: -0.009	inactive: 0.006	inactive: 0.014	inactive: 0	inactive: -0.007	inactive: 0.036	inactive: -0.124	inactive: 0	inactive: -0.059	inactive: 0.005
TRAF3 (UniProt Q13114)	inactive: 0.185	inactive: -0.132	inactive: -0.092	inactive: 0.024	inactive: -0.025	inactive: 0.282	inactive: -0.016	inactive: 0.017	inactive: 0.08	inactive: -0.317	inactive: 0.074	inactive: -0.308	inactive: -0.116	inactive: -0.005	inactive: 0.033
